This is one part of the list.

The chains behind the UniProt entries cited, without tags or fusion partners. Where a name states a change or a piece, a line headed by the entry shows the natural chain unless it says otherwise.
UniProt Q8WVD3: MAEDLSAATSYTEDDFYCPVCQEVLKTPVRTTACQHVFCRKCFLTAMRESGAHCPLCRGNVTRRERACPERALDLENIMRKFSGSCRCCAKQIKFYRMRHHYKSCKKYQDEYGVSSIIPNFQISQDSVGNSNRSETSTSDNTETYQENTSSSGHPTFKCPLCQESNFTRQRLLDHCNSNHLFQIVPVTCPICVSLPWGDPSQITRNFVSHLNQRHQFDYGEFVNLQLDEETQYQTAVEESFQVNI
UniProt O43353, whole entry, looked up: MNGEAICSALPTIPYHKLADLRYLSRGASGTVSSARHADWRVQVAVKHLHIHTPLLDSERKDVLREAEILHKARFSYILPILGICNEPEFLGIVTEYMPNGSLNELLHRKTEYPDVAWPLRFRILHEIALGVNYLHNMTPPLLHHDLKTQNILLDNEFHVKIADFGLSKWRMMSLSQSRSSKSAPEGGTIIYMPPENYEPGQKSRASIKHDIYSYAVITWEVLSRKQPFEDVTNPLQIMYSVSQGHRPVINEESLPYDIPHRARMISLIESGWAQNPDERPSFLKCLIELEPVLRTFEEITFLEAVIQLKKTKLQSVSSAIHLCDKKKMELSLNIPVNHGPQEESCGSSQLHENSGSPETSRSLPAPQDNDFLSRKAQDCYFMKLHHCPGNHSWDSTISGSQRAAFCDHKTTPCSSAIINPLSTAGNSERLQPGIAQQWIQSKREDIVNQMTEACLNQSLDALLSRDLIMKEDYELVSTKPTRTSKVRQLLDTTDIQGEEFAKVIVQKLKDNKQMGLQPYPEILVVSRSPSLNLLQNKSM
UniProt Q9P260: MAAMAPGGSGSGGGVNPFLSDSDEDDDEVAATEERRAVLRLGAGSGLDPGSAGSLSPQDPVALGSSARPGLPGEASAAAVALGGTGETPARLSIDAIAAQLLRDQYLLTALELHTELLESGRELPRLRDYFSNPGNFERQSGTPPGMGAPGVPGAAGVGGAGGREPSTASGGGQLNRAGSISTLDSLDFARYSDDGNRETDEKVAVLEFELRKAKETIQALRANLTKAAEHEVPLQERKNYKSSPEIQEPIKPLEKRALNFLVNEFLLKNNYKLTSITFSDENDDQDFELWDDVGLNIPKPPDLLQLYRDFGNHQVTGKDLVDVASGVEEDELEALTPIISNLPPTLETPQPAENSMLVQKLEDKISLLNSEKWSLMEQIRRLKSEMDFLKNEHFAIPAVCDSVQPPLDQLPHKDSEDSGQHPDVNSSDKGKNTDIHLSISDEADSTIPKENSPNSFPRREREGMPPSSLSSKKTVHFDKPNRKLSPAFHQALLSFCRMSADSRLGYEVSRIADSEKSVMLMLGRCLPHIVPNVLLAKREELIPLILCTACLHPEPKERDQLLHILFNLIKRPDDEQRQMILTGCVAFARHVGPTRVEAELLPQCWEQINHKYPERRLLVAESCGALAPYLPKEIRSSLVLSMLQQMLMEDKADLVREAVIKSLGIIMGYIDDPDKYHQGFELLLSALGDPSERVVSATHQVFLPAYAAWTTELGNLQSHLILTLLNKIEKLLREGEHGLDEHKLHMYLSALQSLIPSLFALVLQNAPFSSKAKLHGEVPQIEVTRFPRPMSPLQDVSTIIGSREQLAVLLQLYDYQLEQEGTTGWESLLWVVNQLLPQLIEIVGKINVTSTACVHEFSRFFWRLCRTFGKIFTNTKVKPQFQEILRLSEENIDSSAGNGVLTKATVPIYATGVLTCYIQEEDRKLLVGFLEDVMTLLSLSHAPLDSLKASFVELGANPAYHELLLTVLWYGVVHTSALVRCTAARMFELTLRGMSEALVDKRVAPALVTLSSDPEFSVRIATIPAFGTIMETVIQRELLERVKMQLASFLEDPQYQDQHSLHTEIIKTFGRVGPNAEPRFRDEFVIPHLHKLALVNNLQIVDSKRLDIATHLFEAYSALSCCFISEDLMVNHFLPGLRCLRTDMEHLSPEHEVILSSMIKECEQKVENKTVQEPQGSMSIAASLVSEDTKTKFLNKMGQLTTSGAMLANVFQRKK
UniProt Q96TC7: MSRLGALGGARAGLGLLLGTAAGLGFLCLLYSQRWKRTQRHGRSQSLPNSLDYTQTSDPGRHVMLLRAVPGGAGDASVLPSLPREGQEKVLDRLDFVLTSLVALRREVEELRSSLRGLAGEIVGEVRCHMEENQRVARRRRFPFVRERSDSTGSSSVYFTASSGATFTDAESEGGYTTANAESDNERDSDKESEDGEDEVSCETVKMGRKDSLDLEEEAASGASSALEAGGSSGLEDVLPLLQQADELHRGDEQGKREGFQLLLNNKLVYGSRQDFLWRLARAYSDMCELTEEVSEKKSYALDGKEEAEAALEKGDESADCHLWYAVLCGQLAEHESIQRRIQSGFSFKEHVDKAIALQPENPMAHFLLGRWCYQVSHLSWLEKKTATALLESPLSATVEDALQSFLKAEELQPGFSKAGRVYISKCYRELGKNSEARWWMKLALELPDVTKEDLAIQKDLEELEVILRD
UniProt Q9P258, whole entry, looked up: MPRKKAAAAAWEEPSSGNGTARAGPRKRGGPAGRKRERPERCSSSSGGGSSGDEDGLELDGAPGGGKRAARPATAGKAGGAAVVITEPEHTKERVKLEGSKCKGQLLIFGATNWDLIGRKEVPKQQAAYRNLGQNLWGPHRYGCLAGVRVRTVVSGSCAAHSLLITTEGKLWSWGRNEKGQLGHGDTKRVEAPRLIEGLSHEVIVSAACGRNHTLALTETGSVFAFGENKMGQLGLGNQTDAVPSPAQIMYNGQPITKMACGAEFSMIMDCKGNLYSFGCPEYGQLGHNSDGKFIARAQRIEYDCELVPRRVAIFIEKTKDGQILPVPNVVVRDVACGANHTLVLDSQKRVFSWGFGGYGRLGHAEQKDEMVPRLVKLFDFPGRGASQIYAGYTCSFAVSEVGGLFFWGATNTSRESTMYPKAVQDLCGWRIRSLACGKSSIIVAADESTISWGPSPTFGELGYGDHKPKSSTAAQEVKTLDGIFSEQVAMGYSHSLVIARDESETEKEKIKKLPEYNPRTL
UniProt P40937, whole entry, looked up: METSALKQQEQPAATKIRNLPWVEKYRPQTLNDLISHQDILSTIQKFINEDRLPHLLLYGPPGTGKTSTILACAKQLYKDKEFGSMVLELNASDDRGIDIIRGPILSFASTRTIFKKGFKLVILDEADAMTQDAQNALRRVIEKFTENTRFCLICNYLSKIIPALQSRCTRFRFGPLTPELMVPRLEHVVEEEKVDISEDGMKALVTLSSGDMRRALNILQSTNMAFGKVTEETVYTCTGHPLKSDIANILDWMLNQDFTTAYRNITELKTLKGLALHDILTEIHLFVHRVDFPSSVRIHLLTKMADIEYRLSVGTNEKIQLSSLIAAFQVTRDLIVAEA
UniProt A6NED2: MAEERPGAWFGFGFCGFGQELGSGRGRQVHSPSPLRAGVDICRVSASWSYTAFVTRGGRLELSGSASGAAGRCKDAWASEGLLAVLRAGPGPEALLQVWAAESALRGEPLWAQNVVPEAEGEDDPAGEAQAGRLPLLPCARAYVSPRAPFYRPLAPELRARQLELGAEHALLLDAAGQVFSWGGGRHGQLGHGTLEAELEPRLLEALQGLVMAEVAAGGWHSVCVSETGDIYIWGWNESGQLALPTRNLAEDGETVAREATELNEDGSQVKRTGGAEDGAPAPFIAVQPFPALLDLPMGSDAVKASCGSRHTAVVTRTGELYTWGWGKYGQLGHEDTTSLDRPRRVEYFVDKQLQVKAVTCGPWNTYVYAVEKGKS
UniProt O43567: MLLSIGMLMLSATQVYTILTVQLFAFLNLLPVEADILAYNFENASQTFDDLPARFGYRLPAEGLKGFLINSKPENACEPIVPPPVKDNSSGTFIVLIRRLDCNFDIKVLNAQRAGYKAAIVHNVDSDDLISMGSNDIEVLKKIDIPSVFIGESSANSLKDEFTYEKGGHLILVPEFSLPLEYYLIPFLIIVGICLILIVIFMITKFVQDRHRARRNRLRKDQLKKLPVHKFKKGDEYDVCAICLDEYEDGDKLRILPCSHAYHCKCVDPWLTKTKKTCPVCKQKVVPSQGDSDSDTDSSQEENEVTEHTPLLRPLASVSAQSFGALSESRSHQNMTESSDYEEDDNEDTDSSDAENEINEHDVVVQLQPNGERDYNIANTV
UniProt Q9H1K0: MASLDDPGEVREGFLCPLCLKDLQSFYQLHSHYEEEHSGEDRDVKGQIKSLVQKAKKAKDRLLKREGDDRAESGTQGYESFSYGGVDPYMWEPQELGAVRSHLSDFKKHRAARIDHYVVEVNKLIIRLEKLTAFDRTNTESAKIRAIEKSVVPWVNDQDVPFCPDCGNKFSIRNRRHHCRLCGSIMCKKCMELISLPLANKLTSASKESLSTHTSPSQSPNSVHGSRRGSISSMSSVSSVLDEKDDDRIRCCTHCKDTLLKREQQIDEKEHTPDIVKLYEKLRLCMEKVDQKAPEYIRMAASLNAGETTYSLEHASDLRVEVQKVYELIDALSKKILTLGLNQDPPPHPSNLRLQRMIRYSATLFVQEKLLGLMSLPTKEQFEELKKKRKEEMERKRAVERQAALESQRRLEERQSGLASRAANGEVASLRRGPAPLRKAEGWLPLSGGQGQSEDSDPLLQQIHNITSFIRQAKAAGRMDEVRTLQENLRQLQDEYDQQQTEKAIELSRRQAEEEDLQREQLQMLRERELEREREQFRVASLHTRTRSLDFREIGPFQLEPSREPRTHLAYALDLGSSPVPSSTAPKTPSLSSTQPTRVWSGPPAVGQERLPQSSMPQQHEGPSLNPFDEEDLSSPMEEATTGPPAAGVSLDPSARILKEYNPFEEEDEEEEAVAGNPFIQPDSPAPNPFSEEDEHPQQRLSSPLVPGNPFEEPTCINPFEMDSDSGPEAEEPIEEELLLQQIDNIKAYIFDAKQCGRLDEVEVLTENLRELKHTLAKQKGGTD
UniProt Q8WZ73: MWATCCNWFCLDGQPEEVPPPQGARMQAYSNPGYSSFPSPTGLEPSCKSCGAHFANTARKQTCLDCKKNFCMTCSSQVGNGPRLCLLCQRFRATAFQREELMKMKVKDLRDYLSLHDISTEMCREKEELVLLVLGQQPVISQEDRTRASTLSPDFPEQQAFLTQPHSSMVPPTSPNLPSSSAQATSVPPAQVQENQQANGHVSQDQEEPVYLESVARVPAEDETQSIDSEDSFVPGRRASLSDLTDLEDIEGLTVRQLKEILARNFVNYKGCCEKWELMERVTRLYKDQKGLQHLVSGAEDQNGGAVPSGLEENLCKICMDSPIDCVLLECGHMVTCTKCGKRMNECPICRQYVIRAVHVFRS
UniProt Q15293: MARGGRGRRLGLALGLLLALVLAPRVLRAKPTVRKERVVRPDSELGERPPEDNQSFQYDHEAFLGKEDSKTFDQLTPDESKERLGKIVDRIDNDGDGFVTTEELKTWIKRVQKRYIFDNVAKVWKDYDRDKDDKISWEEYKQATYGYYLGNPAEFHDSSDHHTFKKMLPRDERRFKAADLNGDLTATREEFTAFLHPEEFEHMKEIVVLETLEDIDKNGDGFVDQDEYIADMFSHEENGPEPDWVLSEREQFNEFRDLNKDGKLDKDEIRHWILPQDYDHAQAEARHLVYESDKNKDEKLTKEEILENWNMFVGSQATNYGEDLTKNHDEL
UniProt Q96K19: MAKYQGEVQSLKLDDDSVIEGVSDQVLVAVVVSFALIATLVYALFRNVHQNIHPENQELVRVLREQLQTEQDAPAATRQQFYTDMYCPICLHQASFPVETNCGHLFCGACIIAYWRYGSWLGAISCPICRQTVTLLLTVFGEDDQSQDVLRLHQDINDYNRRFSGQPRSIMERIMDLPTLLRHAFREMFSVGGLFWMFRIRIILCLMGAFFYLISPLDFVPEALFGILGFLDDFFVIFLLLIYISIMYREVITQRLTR
UniProt Q9Y508: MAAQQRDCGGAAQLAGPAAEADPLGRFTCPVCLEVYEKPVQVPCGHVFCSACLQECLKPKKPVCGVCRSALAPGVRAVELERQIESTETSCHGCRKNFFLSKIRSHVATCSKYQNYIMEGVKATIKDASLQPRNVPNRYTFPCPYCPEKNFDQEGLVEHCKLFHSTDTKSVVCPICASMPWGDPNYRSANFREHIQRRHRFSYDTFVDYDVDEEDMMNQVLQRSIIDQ
UniProt Q8NC44: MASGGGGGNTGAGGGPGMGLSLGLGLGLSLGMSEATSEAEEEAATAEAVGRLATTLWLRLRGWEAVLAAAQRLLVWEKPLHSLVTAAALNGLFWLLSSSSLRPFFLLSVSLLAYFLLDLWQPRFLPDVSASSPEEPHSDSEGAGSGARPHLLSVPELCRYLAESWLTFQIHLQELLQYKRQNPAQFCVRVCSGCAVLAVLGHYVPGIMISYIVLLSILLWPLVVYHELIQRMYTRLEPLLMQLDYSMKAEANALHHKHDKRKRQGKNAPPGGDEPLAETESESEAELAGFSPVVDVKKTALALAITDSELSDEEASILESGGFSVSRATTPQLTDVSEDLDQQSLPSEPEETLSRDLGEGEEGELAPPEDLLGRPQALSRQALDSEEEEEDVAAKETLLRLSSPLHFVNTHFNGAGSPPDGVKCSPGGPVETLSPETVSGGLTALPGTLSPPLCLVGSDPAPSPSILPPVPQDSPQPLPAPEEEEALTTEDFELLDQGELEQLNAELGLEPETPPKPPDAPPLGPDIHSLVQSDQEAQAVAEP

Compound in this assay: c1cn2cc(-c3ccc4cn[nH]c4c3)nc(Nc3ccc(N4CCOCC4)cc3)c2n1 [entospletinib]
Description: log2 fold change, soluble protein after heating vs DMSO (PISA); higher = thermal stabilisation; K562 cells, 10 uM, 30 min; active = over 0.2 and 3.5 SD of the protein, either way, in both replicates (recomputed). Summed up: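 Soluble protein was quantified by TMTpro 16plex LC-MS/MS after channel sums were equalised. It was obtained as the supernatant after 21,000xg for 90 min from pooled aliquots of K562 cells (2×10^6 cells/mL, 10 μM compound, 30 min) heated for 3 min across 48°C-58°C and extracted in PBS with 0.5% NP-40 at 4°C. Thermal stability values are relative to control samples and come from duplicates. They are given as log2 fold changes.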
Consider RFX3 (UniProt P48380), for which the log2 fold change is inactive: -0.176.

As for RNF138 (UniProt Q8WVD3), the log2 fold change is inactive: 0.026. Take RCHY1 (UniProt Q96PM5): the log2 fold change was inactive: 0.113.

Regarding RIPK2 (UniProt O43353), the log2 fold change was inactive: -0.088. Regarding RNF214 (UniProt Q8ND24), the log2 fold change was inactive: -0.049.

For the target RELCH isoform 2 (UniProt Q9P260), the log2 fold change was inactive: 0. With RILPL1 (UniProt Q5EBL4), the log2 fold change was inactive: 0.106. The figure for RNF11 (UniProt Q9Y3C5) is inactive: -0.034; for RMDN3 (UniProt Q96TC7) it is inactive: 0.002; for RCC2 (UniProt Q9P258) it is inactive: 0.005.

Turning to REXO2 (UniProt Q9Y3B8), the log2 fold change is inactive: 0.012. For the target RFC5 (UniProt P40937), the log2 fold change is inactive: -0.064. Regarding RCCD1 (UniProt A6NED2), the log2 fold change is inactive: 0.007.

With RNF130 (UniProt Q86XS8), the log2 fold change is inactive: -0.28. As for REPS1 (UniProt Q96D71), the figure is inactive: 0.183. As for RNF13 (UniProt O43567), the figure is inactive: 0.144.

Turning to RBSN (UniProt Q9H1K0), the log2 fold change was inactive: 0.115. As for RBM42 (UniProt Q9BTD8), the figure is inactive: 0.038; as for RFFL (UniProt Q8WZ73), inactive: -0.262. The figure for RCN1 (UniProt Q15293) is inactive: 0.043; for RNF20 (UniProt Q5VTR2) it is inactive: 0.027. As to RNF170 (UniProt Q96K19), the log2 fold change was inactive: -0.051. As for RHOT1 isoform 3 (UniProt Q8IXI2), the figure is inactive: -0.023. In the case of RNF114 (UniProt Q9Y508), the log2 fold change is inactive: 0.022. The figure for RBM38 (UniProt Q9H0Z9) is inactive: 0.05; for RGN (UniProt Q15493) it is inactive: -0.008; for RNASEH2B (UniProt Q5TBB1) it is inactive: -0.086.

Consider RHAG (UniProt Q02094), for which the log2 fold change was inactive: 0.003. As for RETREG2 (UniProt Q8NC44), the log2 fold change is inactive: -0.036.

The values above are taken from the supplement of paper PMC10849652.
